{
  "source": "patent US20060293242A1",
  "about": "(priority 2001, published 2006)",
  "experiment": "general procedure: Fmoc solid-phase peptide synthesis",
  "conditions": "whole synthesis, analytical HPLC and mass spectrometry",
  "note": "No end group written: not given here.",
  "data": [
    {"sequence": "RRLSYSRRRF", "values": [
      {"measurement": "final HPLC purity", "result": ">95", "unit": "%"}
    ]}
  ]
}
